Data published in US20190077876A1 (AbbVie / Abbott, published 2019).
No constants are given. Whether binding was seen depends on the method and setting. Some binding calls cover weakened binding; strength is not graded here.

The chains behind the UniProt entries cited, without tags or fusion partners.
UniProt O35054: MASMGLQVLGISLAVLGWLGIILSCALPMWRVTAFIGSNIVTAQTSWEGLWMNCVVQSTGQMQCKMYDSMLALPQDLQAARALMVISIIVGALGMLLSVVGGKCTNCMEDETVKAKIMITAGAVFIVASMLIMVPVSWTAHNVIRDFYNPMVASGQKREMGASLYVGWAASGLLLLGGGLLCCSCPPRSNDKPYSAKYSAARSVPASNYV

Tests used:
human CLDN9 protein [1] = biological target: T1, human CLDN9 protein (human, UniProt O95484 1-217); assay: flow cytometry, 10 µg/ml antibody on stably transduced HEK-293T cells
T1 sequence (looked up): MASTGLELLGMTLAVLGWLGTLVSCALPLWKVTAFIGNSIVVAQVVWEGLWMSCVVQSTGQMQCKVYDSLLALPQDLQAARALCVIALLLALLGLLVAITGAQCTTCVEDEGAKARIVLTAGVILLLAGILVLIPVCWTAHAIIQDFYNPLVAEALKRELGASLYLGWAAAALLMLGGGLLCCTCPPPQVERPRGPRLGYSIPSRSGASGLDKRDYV

human CLDN6 protein [2] = biological target: T2, human CLDN6 protein (human, UniProt P56747 1-220); assay: as above
T2 sequence (looked up): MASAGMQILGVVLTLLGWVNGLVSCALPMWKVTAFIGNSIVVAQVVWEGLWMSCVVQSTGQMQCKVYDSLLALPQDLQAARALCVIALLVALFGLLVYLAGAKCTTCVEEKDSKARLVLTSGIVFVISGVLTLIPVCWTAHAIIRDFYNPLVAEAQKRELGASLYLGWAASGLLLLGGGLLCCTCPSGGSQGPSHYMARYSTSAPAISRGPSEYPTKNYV

human CLDN4 protein [3] = biological target: T3, human CLDN4 protein (human, UniProt O14493 1-209); assay: as above
T3 sequence (looked up): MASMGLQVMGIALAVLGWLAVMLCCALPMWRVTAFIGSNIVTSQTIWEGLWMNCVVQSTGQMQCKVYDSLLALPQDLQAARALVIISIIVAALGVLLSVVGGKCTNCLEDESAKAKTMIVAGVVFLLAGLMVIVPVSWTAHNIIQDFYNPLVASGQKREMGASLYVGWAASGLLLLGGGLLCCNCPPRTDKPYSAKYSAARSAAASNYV

human CLDN9 protein [4] = biological target: T1, human CLDN9 protein; assay: flow cytometry on HEK-293T cells overexpressing the CLDN protein
human CLDN6 protein [5] = biological target: T2, human CLDN6 protein; assay: as above
human CLDN4 protein [6] = biological target: T3, human CLDN4 protein; assay: as above
rat CLDN4 protein (rat) = biological target: T4, rat CLDN4 protein (rat) (UniProt Q5XIT8); assay: flow cytometry (data not shown)
T4 sequence: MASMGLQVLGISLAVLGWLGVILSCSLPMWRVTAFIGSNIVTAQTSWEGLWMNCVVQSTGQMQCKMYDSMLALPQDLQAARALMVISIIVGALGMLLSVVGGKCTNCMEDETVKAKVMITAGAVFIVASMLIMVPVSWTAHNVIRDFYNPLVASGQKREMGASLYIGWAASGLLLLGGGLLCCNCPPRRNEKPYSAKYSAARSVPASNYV

[7] = biological target: mouse CLDN4 protein (mouse) (UniProt O35054); assay: flow cytometry (data not shown)

Measured: binding

B1: SC27.1 mouse monoclonal anti-CLDN antibody (antibody, V domains shown)
VH: EVQLQESRPELVKPGASVKISCKTSGYTFTEYTLHWVKQSHGKSLEWIGGINPNNGDTIYNQKFKGKATLTVDKSSSTAYMELRSLTSEYSAVYYCARRAITVYAMDYWGQGTSVTVSS
VL: DIQMTQSSSSFSVSLGDRVTITCKASEDIYNRLAWYQQKPGNAPRLLISGATSLETGTPSRFSGSGSGKDYTLSITSLRTEDAATYYCQQYWSTPLTFGTGTKLELK
binds: all assays above

B2: SC27.22 mouse monoclonal anti-CLDN antibody (antibody, V domains shown)
VH: QVQLQQPGAELVRPGASVKLSCKASGYTFTSYWMNWVKQRPGQGLEWIAMIHPSDSEIRLNQKFKDKATLTVDRSSSTAYMQLSSPTSEDSAVYYCARIDSYYGYLFYFDYWGQGTTLTVSS
VL: DIVLTQSPASLAVSLGQRATISCRASQTVSTSSYSYMHWFQQKPGQPPKLLIKFASNVESGVPARFSGSGSGTDFTLNIHPVEEEDISTYYCQHSWEIPWTFGGGTKLEIK
binds: all assays above
